From the supplement of paper PMC7666118
Some of the results follow.

Protein sequences, listed by entry. Tags and fused reporters are not part of them. Lines headed by an entry give the natural chain unless they say otherwise; changes in a name come on top.
UniProt Q92820: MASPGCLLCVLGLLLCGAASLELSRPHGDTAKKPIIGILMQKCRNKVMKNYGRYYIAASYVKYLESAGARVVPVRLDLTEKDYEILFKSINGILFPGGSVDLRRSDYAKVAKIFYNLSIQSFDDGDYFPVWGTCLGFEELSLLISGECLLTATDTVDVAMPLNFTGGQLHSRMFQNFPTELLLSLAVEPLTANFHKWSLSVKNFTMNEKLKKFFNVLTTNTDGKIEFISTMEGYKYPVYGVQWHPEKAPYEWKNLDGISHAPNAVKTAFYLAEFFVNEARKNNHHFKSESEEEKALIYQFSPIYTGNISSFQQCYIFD
UniProt O95749: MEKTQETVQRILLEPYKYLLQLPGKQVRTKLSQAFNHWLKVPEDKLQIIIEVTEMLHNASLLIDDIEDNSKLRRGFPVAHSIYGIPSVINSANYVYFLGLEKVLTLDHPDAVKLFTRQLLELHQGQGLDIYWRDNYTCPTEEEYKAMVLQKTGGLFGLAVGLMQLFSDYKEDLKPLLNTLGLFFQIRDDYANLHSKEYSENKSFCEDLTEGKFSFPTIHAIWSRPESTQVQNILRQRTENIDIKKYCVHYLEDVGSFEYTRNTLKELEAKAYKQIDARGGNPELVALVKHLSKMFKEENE
UniProt Q8TD30: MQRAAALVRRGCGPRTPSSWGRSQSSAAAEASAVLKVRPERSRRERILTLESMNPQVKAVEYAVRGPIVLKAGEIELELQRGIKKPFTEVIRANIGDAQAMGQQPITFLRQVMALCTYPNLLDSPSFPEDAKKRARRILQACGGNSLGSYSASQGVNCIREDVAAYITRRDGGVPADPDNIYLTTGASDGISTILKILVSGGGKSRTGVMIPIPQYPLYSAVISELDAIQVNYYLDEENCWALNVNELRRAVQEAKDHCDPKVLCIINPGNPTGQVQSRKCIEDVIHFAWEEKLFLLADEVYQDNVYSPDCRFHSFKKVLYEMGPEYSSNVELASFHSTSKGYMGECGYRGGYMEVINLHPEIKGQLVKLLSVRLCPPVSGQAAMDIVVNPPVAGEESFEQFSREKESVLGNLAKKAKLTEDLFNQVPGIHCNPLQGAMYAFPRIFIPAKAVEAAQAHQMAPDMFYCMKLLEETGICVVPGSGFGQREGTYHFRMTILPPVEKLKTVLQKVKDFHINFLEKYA
UniProt Q04760: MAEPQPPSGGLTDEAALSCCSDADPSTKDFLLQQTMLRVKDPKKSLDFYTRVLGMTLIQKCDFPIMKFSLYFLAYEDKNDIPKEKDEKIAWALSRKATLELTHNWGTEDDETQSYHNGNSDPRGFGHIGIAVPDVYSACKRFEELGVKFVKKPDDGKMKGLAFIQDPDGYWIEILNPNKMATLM
UniProt O60547: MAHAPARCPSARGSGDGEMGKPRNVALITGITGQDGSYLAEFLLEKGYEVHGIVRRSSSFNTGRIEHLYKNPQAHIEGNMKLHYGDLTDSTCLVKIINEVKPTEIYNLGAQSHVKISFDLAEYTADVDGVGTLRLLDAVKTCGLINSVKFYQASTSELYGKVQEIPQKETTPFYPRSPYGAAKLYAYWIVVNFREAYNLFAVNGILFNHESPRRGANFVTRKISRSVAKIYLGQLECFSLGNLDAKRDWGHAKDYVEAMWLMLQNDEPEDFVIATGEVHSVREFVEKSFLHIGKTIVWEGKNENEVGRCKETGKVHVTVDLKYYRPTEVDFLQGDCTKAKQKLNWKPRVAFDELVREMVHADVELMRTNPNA
UniProt P49841: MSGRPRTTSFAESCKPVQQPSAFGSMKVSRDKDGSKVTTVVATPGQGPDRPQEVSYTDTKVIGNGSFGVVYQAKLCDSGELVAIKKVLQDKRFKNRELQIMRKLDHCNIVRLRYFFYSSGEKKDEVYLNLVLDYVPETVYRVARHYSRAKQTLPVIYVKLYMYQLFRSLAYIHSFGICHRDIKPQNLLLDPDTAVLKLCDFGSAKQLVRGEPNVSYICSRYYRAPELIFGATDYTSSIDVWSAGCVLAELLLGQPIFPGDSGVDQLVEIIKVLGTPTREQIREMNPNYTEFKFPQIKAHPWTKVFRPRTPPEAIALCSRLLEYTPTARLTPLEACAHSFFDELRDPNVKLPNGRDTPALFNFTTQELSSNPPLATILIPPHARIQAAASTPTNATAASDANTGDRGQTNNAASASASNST
UniProt Q969S9: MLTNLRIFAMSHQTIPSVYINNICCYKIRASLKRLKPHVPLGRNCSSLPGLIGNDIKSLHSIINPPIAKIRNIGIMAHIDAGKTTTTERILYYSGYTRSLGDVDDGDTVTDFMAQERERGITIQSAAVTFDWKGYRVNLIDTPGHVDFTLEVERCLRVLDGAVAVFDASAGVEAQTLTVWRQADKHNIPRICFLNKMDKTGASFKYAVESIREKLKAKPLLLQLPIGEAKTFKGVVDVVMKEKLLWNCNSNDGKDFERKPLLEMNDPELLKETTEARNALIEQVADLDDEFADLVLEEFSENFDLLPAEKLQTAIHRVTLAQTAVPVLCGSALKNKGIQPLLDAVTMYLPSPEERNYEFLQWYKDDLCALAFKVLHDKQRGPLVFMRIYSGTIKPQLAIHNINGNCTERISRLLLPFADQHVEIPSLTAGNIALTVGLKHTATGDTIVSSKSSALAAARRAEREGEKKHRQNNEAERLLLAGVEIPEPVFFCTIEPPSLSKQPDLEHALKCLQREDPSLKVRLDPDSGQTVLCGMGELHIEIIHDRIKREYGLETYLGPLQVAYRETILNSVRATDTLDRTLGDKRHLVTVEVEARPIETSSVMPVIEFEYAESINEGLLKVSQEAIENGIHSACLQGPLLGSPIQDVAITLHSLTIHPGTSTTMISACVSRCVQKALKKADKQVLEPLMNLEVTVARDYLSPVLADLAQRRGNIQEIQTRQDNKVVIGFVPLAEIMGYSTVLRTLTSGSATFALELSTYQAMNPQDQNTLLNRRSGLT
UniProt P12081: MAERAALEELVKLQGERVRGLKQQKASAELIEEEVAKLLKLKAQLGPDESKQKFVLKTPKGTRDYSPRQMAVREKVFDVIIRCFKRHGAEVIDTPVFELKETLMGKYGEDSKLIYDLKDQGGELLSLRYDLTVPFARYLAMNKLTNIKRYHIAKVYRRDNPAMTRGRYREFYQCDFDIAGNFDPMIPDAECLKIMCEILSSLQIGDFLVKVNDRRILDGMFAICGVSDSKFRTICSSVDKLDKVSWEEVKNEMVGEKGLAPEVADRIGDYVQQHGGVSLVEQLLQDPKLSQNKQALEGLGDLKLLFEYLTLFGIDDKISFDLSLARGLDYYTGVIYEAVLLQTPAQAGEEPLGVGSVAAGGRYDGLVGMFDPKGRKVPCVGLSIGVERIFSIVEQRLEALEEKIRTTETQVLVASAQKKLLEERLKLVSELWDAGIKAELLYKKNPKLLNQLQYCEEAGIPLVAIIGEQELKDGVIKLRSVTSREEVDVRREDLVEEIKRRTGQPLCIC
UniProt Q02742: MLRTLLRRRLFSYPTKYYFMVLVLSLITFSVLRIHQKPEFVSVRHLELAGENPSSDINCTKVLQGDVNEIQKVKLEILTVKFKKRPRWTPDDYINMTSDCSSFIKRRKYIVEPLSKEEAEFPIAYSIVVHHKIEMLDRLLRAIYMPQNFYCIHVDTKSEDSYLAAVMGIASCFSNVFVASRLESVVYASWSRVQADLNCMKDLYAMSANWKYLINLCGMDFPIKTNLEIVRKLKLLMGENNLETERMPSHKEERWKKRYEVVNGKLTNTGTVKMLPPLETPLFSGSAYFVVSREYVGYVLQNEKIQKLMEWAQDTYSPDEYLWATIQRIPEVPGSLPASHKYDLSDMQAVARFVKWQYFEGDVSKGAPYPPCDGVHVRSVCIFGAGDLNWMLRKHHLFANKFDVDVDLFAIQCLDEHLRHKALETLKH
UniProt P60983, whole entry: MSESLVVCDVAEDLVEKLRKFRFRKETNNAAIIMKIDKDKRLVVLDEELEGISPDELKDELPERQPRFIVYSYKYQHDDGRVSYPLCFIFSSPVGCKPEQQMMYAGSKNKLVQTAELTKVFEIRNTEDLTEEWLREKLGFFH
UniProt Q9Y5P6: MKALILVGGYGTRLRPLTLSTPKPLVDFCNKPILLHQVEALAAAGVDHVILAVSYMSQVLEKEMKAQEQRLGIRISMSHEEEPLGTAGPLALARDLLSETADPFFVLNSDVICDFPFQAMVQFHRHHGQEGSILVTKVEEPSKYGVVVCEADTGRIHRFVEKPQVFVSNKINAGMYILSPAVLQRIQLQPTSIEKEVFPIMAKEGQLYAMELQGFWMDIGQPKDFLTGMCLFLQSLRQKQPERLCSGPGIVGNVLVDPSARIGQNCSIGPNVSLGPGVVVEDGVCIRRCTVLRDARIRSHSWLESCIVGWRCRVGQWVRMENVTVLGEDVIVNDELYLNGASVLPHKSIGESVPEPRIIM
UniProt Q9Y5Q9: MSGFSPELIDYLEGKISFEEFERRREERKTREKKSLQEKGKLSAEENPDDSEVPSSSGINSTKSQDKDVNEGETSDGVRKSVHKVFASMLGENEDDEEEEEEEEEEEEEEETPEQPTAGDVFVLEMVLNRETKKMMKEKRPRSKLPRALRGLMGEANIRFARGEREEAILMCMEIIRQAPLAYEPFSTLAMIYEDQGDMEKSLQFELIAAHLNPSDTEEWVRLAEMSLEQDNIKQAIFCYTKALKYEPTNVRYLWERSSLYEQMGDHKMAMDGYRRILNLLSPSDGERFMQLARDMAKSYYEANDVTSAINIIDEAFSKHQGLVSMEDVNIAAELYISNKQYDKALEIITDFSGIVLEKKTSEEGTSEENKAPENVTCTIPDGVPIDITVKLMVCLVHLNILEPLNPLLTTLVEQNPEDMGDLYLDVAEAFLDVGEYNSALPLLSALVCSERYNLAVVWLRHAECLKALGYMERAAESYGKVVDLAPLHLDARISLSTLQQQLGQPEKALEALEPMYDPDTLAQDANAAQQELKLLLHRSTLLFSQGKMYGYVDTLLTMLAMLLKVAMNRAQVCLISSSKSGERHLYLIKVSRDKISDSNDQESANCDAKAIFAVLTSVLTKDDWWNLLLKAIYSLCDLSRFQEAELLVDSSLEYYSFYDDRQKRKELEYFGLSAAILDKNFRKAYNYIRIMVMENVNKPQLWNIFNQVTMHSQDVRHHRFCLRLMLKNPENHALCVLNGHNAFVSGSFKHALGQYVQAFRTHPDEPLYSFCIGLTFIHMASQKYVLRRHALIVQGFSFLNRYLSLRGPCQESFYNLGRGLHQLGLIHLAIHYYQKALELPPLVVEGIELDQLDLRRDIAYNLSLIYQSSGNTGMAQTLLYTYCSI
UniProt Q9Y2X7: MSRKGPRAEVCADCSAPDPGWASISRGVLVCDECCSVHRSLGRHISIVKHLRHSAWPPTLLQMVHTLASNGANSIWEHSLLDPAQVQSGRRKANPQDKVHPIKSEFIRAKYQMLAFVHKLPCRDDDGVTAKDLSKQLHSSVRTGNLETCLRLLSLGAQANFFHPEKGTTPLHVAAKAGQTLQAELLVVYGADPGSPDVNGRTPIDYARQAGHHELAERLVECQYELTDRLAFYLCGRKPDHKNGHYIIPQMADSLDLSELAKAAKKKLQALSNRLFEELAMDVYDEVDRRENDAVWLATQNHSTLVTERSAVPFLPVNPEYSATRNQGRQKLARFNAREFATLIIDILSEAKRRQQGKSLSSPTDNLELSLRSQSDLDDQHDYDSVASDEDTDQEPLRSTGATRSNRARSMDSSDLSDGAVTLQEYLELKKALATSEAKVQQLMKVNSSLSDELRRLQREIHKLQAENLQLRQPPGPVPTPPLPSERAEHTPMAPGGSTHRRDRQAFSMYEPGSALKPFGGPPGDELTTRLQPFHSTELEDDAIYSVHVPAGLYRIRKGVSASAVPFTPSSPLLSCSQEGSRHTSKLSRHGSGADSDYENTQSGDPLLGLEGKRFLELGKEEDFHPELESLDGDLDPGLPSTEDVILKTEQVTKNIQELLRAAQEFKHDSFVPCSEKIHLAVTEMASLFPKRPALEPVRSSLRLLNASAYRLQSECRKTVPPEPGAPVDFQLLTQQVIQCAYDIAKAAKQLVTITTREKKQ
UniProt Q92769, whole entry: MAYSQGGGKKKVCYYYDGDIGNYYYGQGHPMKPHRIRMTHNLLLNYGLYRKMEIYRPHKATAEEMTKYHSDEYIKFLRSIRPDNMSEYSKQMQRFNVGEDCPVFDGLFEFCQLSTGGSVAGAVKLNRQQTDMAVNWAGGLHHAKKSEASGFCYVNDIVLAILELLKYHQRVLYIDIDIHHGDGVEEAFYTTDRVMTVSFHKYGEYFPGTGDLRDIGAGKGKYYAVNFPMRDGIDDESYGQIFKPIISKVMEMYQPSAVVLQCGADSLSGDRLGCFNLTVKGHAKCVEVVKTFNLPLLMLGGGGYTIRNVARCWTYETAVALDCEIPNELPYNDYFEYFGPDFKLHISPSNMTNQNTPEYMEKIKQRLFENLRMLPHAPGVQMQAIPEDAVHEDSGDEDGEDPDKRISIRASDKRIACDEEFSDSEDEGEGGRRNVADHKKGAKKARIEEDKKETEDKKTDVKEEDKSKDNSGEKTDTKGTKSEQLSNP

compound: COc1ccc(Cn2ccc3ccc(C(=O)NO)cc32)cc1; experiment: dose-dependent thermal stabilisation call (2D-TPP, DLPTP, 10% FDR) (binary (1 = stabilised)); higher = stabilised by the compound; conditions: system: HL-60 intact cells; concentration range 0.04-10 µM

Target | dose-dependent thermal stabilisation call
HM13 (UniProt Q8TCT9) | inactive: 0
GMFG (UniProt O60234) | inactive: 0
HELB (UniProt Q8NG08) | inactive: 0
GGH (UniProt Q92820) | inactive: 0
GRB2 (UniProt P62993) | inactive: 0
GGPS1 (UniProt O95749) | inactive: 0
GPT2 (UniProt Q8TD30) | inactive: 0
GTF2H2 (UniProt Q13888) | inactive: 0
HAGH (UniProt Q16775) | inactive: 0
GPI (UniProt P06744) | inactive: 0
HLTF (UniProt Q14527) | inactive: 0
GLO1 (UniProt Q04760) | inactive: 0
GZMA (UniProt P12544) | inactive: 0
GMDS (UniProt O60547) | inactive: 0
GSTK1 (UniProt Q9Y2Q3) | inactive: 0
GUK1 (UniProt Q16774) | inactive: 0
GSK3B (UniProt P49841) | inactive: 0
GOLGB1 (UniProt Q14789) | inactive: 0
GNAQ (UniProt P50148) | inactive: 0

Target | dose-dependent thermal stabilisation call
GFM2 (UniProt Q969S9) | inactive: 0
GOLGA5 (UniProt Q8TBA6) | inactive: 0
HIST1H2AD (UniProt P20671) | inactive: 0
HARS (UniProt P12081) | inactive: 0
GCNT1 (UniProt Q02742) | inactive: 0
GPR180 (UniProt Q86V85) | inactive: 0
HIST2H2BA | inactive: 0
GTPBP10 (UniProt A4D1E9) | inactive: 0
GMFB (UniProt P60983) | inactive: 0
GRSF1 (UniProt Q12849) | inactive: 0
HIF1AN (UniProt Q9NWT6) | inactive: 0
GMPPB (UniProt Q9Y5P6) | inactive: 0
GTF3C3 (UniProt Q9Y5Q9) | inactive: 0
GIT1 (UniProt Q9Y2X7) | inactive: 0
GOLPH3L (UniProt Q9H4A5) | inactive: 0
GTF2B (UniProt Q00403) | inactive: 0
HDAC2 (UniProt Q92769) | inactive: 0
HEL308 (UniProt Q8TDG4) | inactive: 0
GRHPR (UniProt Q9UBQ7) | inactive: 0

Another view of part of the listing above.

| Target | dose-dependent thermal stabilisation call |
| --- | --- |
| HIST1H2AD (UniProt P20671) | inactive: 0 |
| GRHPR (UniProt Q9UBQ7) | inactive: 0 |
